Among the data in patent WO2007014744A2 (dated 2007) are binding values, retold here.

Protein sequences, listed by entry. Tags and fused reporters are not part of them.
UniProt Q12884: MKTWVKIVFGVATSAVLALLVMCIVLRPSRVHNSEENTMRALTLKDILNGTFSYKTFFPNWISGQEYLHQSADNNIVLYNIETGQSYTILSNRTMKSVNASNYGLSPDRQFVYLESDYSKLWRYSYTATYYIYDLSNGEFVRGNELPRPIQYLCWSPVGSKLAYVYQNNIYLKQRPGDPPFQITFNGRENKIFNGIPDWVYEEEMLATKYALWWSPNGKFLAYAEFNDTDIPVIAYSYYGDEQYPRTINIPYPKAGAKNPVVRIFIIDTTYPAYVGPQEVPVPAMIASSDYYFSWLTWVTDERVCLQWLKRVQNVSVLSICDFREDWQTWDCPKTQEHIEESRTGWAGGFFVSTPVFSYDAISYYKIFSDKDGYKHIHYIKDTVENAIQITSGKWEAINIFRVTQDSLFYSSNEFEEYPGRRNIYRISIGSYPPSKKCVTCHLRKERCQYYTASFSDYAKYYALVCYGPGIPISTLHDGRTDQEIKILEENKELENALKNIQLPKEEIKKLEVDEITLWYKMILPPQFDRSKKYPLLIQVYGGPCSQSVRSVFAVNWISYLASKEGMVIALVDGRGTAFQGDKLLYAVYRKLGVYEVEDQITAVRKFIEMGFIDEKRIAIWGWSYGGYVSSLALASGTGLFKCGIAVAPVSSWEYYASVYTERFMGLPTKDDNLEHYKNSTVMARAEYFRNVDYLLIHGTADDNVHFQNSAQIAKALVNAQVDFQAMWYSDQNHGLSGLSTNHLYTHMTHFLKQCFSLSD

These are yes or no findings as the source states them, for the method shown. Some results given as binding are weak or reduced against the parent protein; the word gives no strength.

The target in the experiment is fibroblast activation protein (FAP) (UniProt Q12884). In words: flow cytometry on HT1080FAP against HT1080 cells, 5 ug/ml fusion protein, anti-Flag M2 detection; binds less well than CD95-TNC-PL-SC40-CD95L. In general terms: Flow cytometry measures light scatter and fluorescence of single cells or particles in a stream.

B1: CD95-PL-TNC-SC40-CD95L (protein)
chain: VARLSSKSVNAQVTDINSKGLELRKTVTTVETQNLEGLHHDGQFCHKPCPPGERKARDCTVNGDEPDCVPCQEGKEYTDKAHFSSKCRRCRLCDEGHGLEVEINCTRTQNTKCRCKPNFFCNSTVCEHCDPCTKCEHGIIKECTLTSNTKCKEEGSRSNHPVGLLARGGGHPVGLLARGGGHPVGLLARACGCAAAPDIKDLLSRLEELEGLVSSLREQGTGGGSQVQLVQSGGGMVEPGGSLRLSCAASGFTFSNAWMSWVRQAPGKGLEWVGRIKSKAGGGTAEYAAPVKGRFTISRDDSQNTLYLQMNSLKTDDTAVYYCTTHVYGAPRNWGQGSLVTVSSASTKGPKLEEGEFSEARVQSVLTQPPSVSAAPGQKVTISCSGSSSNIGNNYVSWYVQLPGTAPKLLIYDNNKRFSGVPDRFSGSKSGTSATLGITGLQTGDEADYYCGAWDGSLREAVFGGGTKVTVLGDYKDDDDKEKKELRKVAHLTGKSNSRSMPLEWEDTYGIVLLSGVKYKKGGLVINETGLYFVYSKVYFRGQSCNNLPLSHKVYMRNSKYPQDLVMMEGKMMSYCTTGQMWARSSYLGAVFNLTSADHLYVNVSELSLVNFEESQTFFGLYKL
For B1, the binding result was “binds”.
